In patent US20220252583A1, “SEMICONDUCTOR BASED BIOSENSOR UTILIZING THE FIELD EFFECT OF A NOVEL COMPLEX COMPRISING A CHARGED NANOPARTICLE” (LIFE SCIENCE INKUBATOR SACHSEN GMBH & CO. KG, priority 2019, published 2022):

Tested on: monoclonal mouse IgG1 anti human CRP antibody B08
Experiment: Displacement reaction on swCNT-FET biosensor: CRP displaces peptide 80715-Au nanoparticle complex from the antibody
Format: binding
Conditions: constant current, reaction time 10 minutes, peptide 80715 complex
Protocol: The current sensor chips are conducted by crocodile clamps to a dual-channel source meter (Keithley 2612B). The samples are applied by a pipet. Sample volumes are varied between 10 and 50 μl.
As gate electrode a Ag/AgCl electrode operating in a top gate setting was used. A feedback circuit was also implemented, which measures constantly the applied gate current and regulates the gate current voltage if necessary.
A complex comprising a second binding molecule that is coupled to Au nanoparticle via a linker has been produced as described in example 1. 5 nM Au particles with 10 functionally coupled peptides per Au particle were used in the experiment.
The biosensor was functionalized as described in example 4, in this experiment with the monoclonal mouse IgG1 anti human CRP antibody B08. The affinity of the antibody was first tested against CRP (SEQ ID NO: 1) and the modified peptide sequences of SEQ ID NOs: 2 to 6.
The subsequent displacement measurements were performed with the peptide 80715 (SEQ ID NO: 5).
The Au nanoparticles are bound to the CRP-specific antibody via a peptide and exert a field effect on the semiconductor. If the biomarker (in this case CRP) is present in the blood sample, it can displace the nanoparticle and thus annul the field effect.
By adding different concentrations of the biomarker CRP, the current-voltage curve of the transistor has changed accordingly. The following CRP concentration s were used: 381 fM, 3 pM, 24 pM, 195 pM, 1.56 nM, 12.5 nM, 100 nM and 800 nM.
At constant current, changes in the biomarker concentration were measured as voltage changes. […] Reaction times were 10 minutes, measurements were performed in PBS (i.e. 150 mM salt concentration).

In the case of “CRP: biomarker C-reactive protein, the analyte detected by the biosensor”, the “ΔV (V)” value (CRP concentration 3 pM in PBS) was −0.013 V, the “ΔV (V)” value (CRP concentration 24 pM in PBS) was −0.016 V and the “ΔV (V)” value (CRP concentration 195 pM in PBS) was −0.017 V. The “ΔV (V)” value (CRP concentration 1.56 nM in PBS) was −0.020 V, the “ΔV (V)” value (CRP concentration 12.5 nM in PBS) was −0.022 V and the “ΔV (V)” value (CRP concentration 100 nM in PBS) was −0.024 V. The “ΔV (V)” value (CRP concentration 800 nM in PBS) was −0.027 V and the “ΔV (V)” value (CRP concentration 381 fM in PBS) was −0.009 V.
